Data as given in publication PMC5258865.
No constants are given. Whether binding was seen depends on the method and setting. In cells and extracts the contact can be indirect. Binding can be weak; no strength is given. Sequences can lack the tags named with a protein.

Target: T1, OsASR5, BiFC fusion (rice (Oryza sativa L. ssp. japonica)) (UniProt Q53JF7)
T1 sequence: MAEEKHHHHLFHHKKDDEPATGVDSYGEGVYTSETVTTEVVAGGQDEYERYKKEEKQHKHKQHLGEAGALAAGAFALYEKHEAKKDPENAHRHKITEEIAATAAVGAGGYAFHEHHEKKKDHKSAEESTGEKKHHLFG
Assay: split reporter; BiFC in tobacco epidermal cells and in rice protoplasts; signal in the chloroplasts

binding: binds
Substance: OsHSP40, BiFC fusion (rice (Oryza sativa))
